The test system of this data set is C57B1/6 mice or BDNF+/+ and BDNF± mice. Description: Ethanol self-administration in mice (two-bottle choice). It counts as in vivo, mouse. The settings on record: wildtype mice. The protocol:
Voluntary ethanol intake in singly-housed adult male C57B1/6 mice or BDNF+/+ and BDNF±mice was established by placing a bottle containing 10% ethanol in tap water (v/v) on the home cage next to an identical bottle filled with tap water for at least 1 month. Only subjects that consumed at least 40% of their total fluid volume as ethanol were included in these studies. All injections (PBS/10% glycerol vehicle, Tat-KEP27, K252a and/or Tat-RACK1) were conducted at 15:00 hours; ethanol and water intake were measured 18 hours later at 09:00 hours. Treatments were tested using a within-subjects design; subjects received one or two injections per week. Chemicals were administered in injection volumes of 1-3 ml per 100 g body weight. The effect of a deprivation period on consumption was tested by allowing mice continuous access to a bottle of 20% ethanol in tap water and a bottle of tap water on the home cage for 2 weeks. The ethanol bottle was removed for 2 weeks. Intake of 20% ethanol and of water was measured for 4 days after the ethanol was reintroduced.

Regarding `COC(=O)[C@@]1(O)C[C@H]2O[C@]1(C)n1c3ccccc3c3c4c(c5c6ccccc6n2c5c31)C(=O)NC4` [K252a], the “water consumption, mean±SEM” value runs as follows: (K252a 5 mg/kg) 1.69±0.28 mis; (K252a 25 mg/kg) 1.95±0.27 mis.

Source of the values: patent US20050203011A1 (The Regents of the University of California, priority 2003, published 2005).
